Values of other authors as cited in patent US11160814B1, “Methods of treatment for disease from coronavirus exposure” (Ensemble Group Holdings, priority 2020, dated 2021).
Entries after “also recorded” stand apart in the source; their conditions may differ. At least one compound was matched to its structure with a doubt left.

System: SARS-CoV-2
Settings: at 14 and 28 days, compared to usual care; listed as budesonide; cited from earlier work

CCCC1O[C@@H]2C[C@H]3[C@@H]4CCC5=CC(=O)C=C[C@]5(C)[C@H]4[C@@H](O)C[C@]3(C)[C@]2(C(=O)CO)O1 (stereo partly drawn) [BUD, (RS)-11β,16α,17,21-tetrahydroxypregna-1,4-diene-3,20-dione cyclic 16,17-acetal with butyraldehyde]
persistent COVID-19 symptoms (fever, fatigue, shortness of breath): Fewer participants; also recorded: reduced symptoms
